# Measured values: PubChem BioAssay AID248 (DTP/NCI, 2004)
# The list does not hold the whole screen: it gathers tests that were run many times, whatever their T/C, doses with no T/C, and many T/C values between a quarter and a half above the control. Other doses and runs of a compound stand elsewhere. T/C: endpoint of the treated group in % of that of the vehicle group. Some doses have a count of surviving animals in place of a T/C: the source holds a T/C of zero for them, seemingly a mark for toxic or unscored doses. Some survivor counts are full or nearly so, which does not show that the dose was tolerated: the source hardly ever lists a survival T/C far under the control, and the zero likely stands for such cases as well. Survivors were counted at the toxicity check, usually on the fifth day, unless a day is given; later deaths do not show. Schedule codes are those of the source, read here as Q, the interval in days (D) or hours (H), X, the number of doses. Some doses were run more than once; the results are listed from low to high. Some schedules carry Z or #; the key to these is not given. Some molecules as drawn cover several salts, stereoisomers or complexes of the source; a dose is that of the sample tested. For survival time, this PubChem deposit counts one and a half times the control or more as active, and values a quarter to a half above the control carry no call in these data; other NCI protocols may use other cut-offs. Some T/C values carry the count of animals alive at the toxicity check (mostly the fifth day); without a count, all were alive then. Brackets with × give the number of equal values in this list.
# Tested on: L1210 leukemia ip in BDF1 mice, survival T/C
# Assay: NCI In Vivo Anticancer Drug Screen. Data for tumor model L1210 Leukemia (intraperitoneal) in B6D2F1 (BDF1) mice
# Details: T/C endpoint: mean survival time, higher T/C = longer survival
# [1] = dose: 200.0 mg/kg/injection, schedule: Q01DX009 (ip), vehicle: Klucel (hydroxypropylcellulose) (HPC)
# [2] = dose: 400.0 mg/kg/injection, schedule: Q01DX009 (ip), vehicle: Klucel (hydroxypropylcellulose) (HPC)
# [3] = dose: 400.0 mg/kg/injection, schedule: Q04DX003 (ip), vehicle: saline
# [4] = dose: 200.0 mg/kg/injection, schedule: Q01DX009 (ip), vehicle: saline
# [5] = dose: 400.0 mg/kg/injection, schedule: Q01DX009 (ip), vehicle: saline
# [6] = dose: 400.0 mg/kg/injection, schedule: Q01DX001 (ip), vehicle: saline
# [7] = dose: 100.0 mg/kg/injection, schedule: Q01DX001 (ip), vehicle: carboxymethylcellulose (CMC)
# [8] = dose: 200.0 mg/kg/injection, schedule: Q01DX001 (ip), vehicle: carboxymethylcellulose (CMC)
# [9] = dose: 6.25 mg/kg/injection, schedule: Q04DX002 (ip), vehicle: saline with Tween-80
# [10] = dose: 25.0 mg/kg/injection, schedule: Q04DX002 (ip), vehicle: saline with Tween-80
compound,measurement,setting,value
CCCCCCCCCCCC(=O)Nc1ccc(S(=O)(=O)NNc2ccccc2)cc1[N+](=O)[O-],survivor count,[1],5 of 6
same,survivor count,[2],0 of 6
NOCc1csc(Nc2ccccc2)n1,survivor count,[3],0 of 6
C=CCc1cccc(CC=C)c1OCCN(CC)CC,survivor count,[4],0 of 6
same,survivor count,[5],0 of 6
O=C1c2ccccc2C(=O)N1CNc1cccc(Cl)c1,survivor count,"dose: 400.0 mg/kg/injection, schedule: Q01DX009 (ip), vehicle: saline with Tween-80",1 of 3
Cc1ccc(NC(=S)NN)cc1C,survivor count,[1],4 of 6
same,survivor count,"dose: 400.0 mg/kg/injection, schedule: Q04DX003 (ip), vehicle: Klucel (hydroxypropylcellulose) (HPC)",5 of 6
CCOC(=O)NC(C)(C)CN(C(=O)OCC)C(C)(C)CO,survivor count,[3],0 of 6
Cc1cc(C)c(CCN(C)C)c(C)c1C,survivor count,[6],1 of 4
C[N+]1=C2CCCCC2=C(N)CC1,survivor count,"dose: 100.0 mg/kg/injection, schedule: Q04DX003 (ip), vehicle: saline",0 of 6
same,survivor count,"dose: 200.0 mg/kg/injection, schedule: Q04DX003 (ip), vehicle: saline",0 of 6
same,survivor count,[3],0 of 6
O=C1CN(CCN2CC(=O)NC(=O)C2)CC(=O)N1,T/C,"dose: 6.25 mg/kg/injection, schedule: Q03HX024 (ip), vehicle: steroid suspending solution",146 % of control
same,T/C,"dose: 8.4 mg/kg/injection, schedule: Q03HX032 (ip), vehicle: other",136 and 142 % of control [8 of 10 alive]
same,T/C,"dose: 12.5 mg/kg/injection, schedule: Q01DX Z (ip), vehicle: steroid suspending solution",138 % of control
same,T/C,"dose: 12.5 mg/kg/injection, schedule: Q03HX008 (ip), vehicle: steroid suspending solution",129 % of control
same,T/C,"dose: 25.0 mg/kg/injection, schedule: Q01DX009 (ip), vehicle: steroid suspending solution",148 % of control
same,T/C,"dose: 25.0 mg/kg/injection, schedule: Q01DX009 (sc), vehicle: steroid suspending solution",140 % of control
same,T/C,"dose: 25.0 mg/kg/injection, schedule: Q03HX008 (ip), vehicle: steroid suspending solution",149 % of control
same,T/C,"dose: 50.0 mg/kg/injection, schedule: Q04DX003 (ip), vehicle: steroid suspending solution",130 % of control
same,T/C,"dose: 100.0 mg/kg/injection, schedule: Q01DX009 (ip), vehicle: steroid suspending solution",135 % of control
same,T/C,"dose: 100.0 mg/kg/injection, schedule: Q01DX009 (sc), vehicle: steroid suspending solution",132 % of control
same,T/C,"dose: 100.0 mg/kg/injection, schedule: Q01DX Z (ip), vehicle: steroid suspending solution",135 % of control
C[N+]1(CCO)CC[N+](C)(CCCN2c3ccccc3Sc3ccc(Cl)cc32)CC1 (configuration not stated),survivor count,"dose: 80.0 mg/kg/injection, schedule: Q01DX001 (ip), vehicle: carboxymethylcellulose (CMC)",0 of 4
same,survivor count,[7],0 of 4
same,survivor count,[8],0 of 4
same,survivor count,"dose: 400.0 mg/kg/injection, schedule: Q01DX001 (ip), vehicle: carboxymethylcellulose (CMC)",0 of 4
[Cu+2].[O-]c1ccc(Br)c2cccnc12.[O-]c1ccc(Br)c2cccnc12,survivor count,[7],0 of 4
same,survivor count,[8],0 of 4
N#CS/C=C\C(=O)O,survivor count,"dose: 6.25 mg/kg/injection, schedule: Q01DX001 (ip), vehicle: saline with Tween-80",6 of 6
same,T/C,[9],"104, 105, 112, 114 % of control"
same,survivor count,[9],3 of 3
same,T/C,"dose: 12.5 mg/kg/injection, schedule: Q04DX002 (ip), vehicle: saline with Tween-80","93, 103, 106, 125, 127 % of control [2 of 3 alive]"
same,survivor count,"dose: 25.0 mg/kg/injection, schedule: Q01DX001 (ip), vehicle: saline with Tween-80",6 of 6
same,T/C,[10],"98, 100, 101 [2 of 3 alive] (2×), 103, 129 % of control"
same,survivor count,[10],3 of 3
same,survivor count,"dose: 50.0 mg/kg/injection, schedule: Q01DX001 (ip), vehicle: saline with Tween-80",1 of 6
same,survivor count,"dose: 50.0 mg/kg/injection, schedule: Q01DX009 (ip), vehicle: saline with Tween-80",0 of 10
same,survivor count,"dose: 50.0 mg/kg/injection, schedule: Q04DX002 (ip), vehicle: saline with Tween-80","0 of 3, 0 of 6, 1 of 6, 1 of 3"
same,survivor count,"dose: 100.0 mg/kg/injection, schedule: Q04DX002 (ip), vehicle: Klucel (hydroxypropylcellulose) (HPC)",0 of 3
same,survivor count,"dose: 100.0 mg/kg/injection, schedule: Q04DX002 (ip), vehicle: saline with Tween-80","0 of 3, 0 of 6, 1 of 6"
same,survivor count,"dose: 200.0 mg/kg/injection, schedule: Q04DX002 (ip), vehicle: Klucel (hydroxypropylcellulose) (HPC)",0 of 3
same,survivor count,"dose: 400.0 mg/kg/injection, schedule: Q04DX002 (ip), vehicle: Klucel (hydroxypropylcellulose) (HPC)",0 of 3
Cc1ccc(S(=O)(=O)/C=C(\C=C/c2ccccc2)c2ccccc2)cc1,survivor count,"dose: 400.0 mg/kg/injection, schedule: Q04DX003 (ip), vehicle: acetone",6 of 6
C[N+](C)(C)CCC[N+]1(C)CC2CC=CCC2C1 (configuration not stated),survivor count,"dose: 222.0 mg/kg/injection, schedule: Q01DX Z (ip), vehicle: saline",1 of 6
same,survivor count,"dose: 333.0 mg/kg/injection, schedule: Q01DX Z (ip), vehicle: saline",0 of 6
same,survivor count,"dose: 500.0 mg/kg/injection, schedule: Q01DX Z (ip), vehicle: saline",0 of 6
CC(C(N)=O)N1C(=O)C2C3C=CC(C3)C2C1=O (configuration not stated),survivor count,"dose: 200.0 mg/kg/injection, schedule: Q04DX003 (ip), vehicle: saline with Tween-80",3 of 3
COc1ccc(CCN(C)C(C)C2C3CC4CC(C3)CC2C4)cc1OC (configuration not stated),survivor count,[3],0 of 3
O=C(O)c1occ(Cl)c1Cl,survivor count,"dose: 200.0 mg/kg/injection, schedule: Q01DX009 (ip), vehicle: water",0 of 6
same,survivor count,[6],0 of 6
same,survivor count,[2],0 of 6
same,survivor count,"dose: 400.0 mg/kg/injection, schedule: Q04DX003 (ip), vehicle: water",4 of 6
NCS(=O)(=O)O,survivor count,"dose: 100.0 mg/kg/injection, schedule: Q01DX001 (ip), vehicle: saline with Tween-80",0 of 3
same,survivor count,"dose: 100.0 mg/kg/injection, schedule: Q01DX009 (ip), vehicle: saline",6 of 6
same,survivor count,[4],6 of 6
same,survivor count,[5],6 of 6
OC(CN(CCCl)CCCl)C(O)C(O)C(O)CN(CCCl)CCCl (configuration not stated),T/C,"dose: 0.23 mg/kg/injection, schedule: Q01DX Z (ip), vehicle: saline",129 % of control
same,T/C,"dose: 0.3 mg/kg/injection, schedule: Q01DX Z (ip), vehicle: saline",132 % of control
same,T/C,"dose: 1.0 mg/kg/injection, schedule: Q01DX Z (ip), vehicle: saline",128 % of control
same,T/C,"dose: 1.25 mg/kg/injection, schedule: Q01DX001 (ip), vehicle: saline",132 and 148 % of control
same,T/C,"dose: 1.3 mg/kg/injection, schedule: Q01DX Z (ip), vehicle: saline",149 % of control
same,T/C,"dose: 2.5 mg/kg/injection, schedule: Q01DX001 (ip), vehicle: saline",126 % of control
same,T/C,"dose: 3.0 mg/kg/injection, schedule: Q01DX Z (ip), vehicle: saline",142 % of control
same,survivor count,"dose: 5.0 mg/kg/injection, schedule: Q01DX001 (ip), vehicle: saline",2 of 4
same,survivor count,"dose: 10.0 mg/kg/injection, schedule: Q01DX001 (ip), vehicle: saline",0 of 4 and 6 of 6
same,survivor count,"dose: 10.0 mg/kg/injection, schedule: Q01DX Z (ip), vehicle: saline",5 of 6
same,survivor count,"dose: 15.0 mg/kg/injection, schedule: Q01DX Z (ip), vehicle: saline",1 of 6
same,survivor count,"dose: 20.0 mg/kg/injection, schedule: Q01DX001 (ip), vehicle: saline",0 of 4 and 1 of 6
same,survivor count,"dose: 40.0 mg/kg/injection, schedule: Q01DX001 (ip), vehicle: saline",0 of 6
COc1ccc(-c2cc(C(=O)N/N=C/c3ccc([N+](=O)[O-])cc3)c3ccc(C)cc3n2)cc1OC,survivor count,"dose: 100.0 mg/kg/injection, schedule: Q04DX003 (ip), vehicle: saline with Tween-80",6 of 6
